Some entries share one result that the patent states for a list of compounds. For part of these data: For at least one compound, name, drawing or mass did not settle the structure.
Columns and labels:
NRAS = NRAS (Homo sapiens, UniProt P01111); experiment: Cellular Phospho-ERK AlphaLISA, MEF-NRAS cells (RAS-less MEFs expressing NRAS only); assay type: cell-based, mouse; details: 2 h, read-out: relative IC50, phospho-ERK, MEF-NRAS
KRas G12D [1] = target: T1, KRas G12D (Homo sapiens, UniProt P01116, G12D); experiment: PANC-1 Cellular Active RAS GTPase ELISA (KRas G12D Mutation); assay type: cell-based; details: PANC-1 cells, 2 hours; read-out: relative IC50, inhibition of constitutive RAS GTPase activity (KRas G12D mutant)
T1 construct: host or cells: PANC-1

KRAS G12C = target: T2, KRAS G12C (Homo sapiens, UniProt P01116, G12C); experiment: Cellular Phospho-ERK AlphaLISA, NCI-1373 cells (KRAS G12C); assay type: cell-based; details: 2 h, read-out: relative IC50, reduction of phosphorylated ERK-1/2 in cells expressing KRAS G12C
T2 construct: endogenous in cells; host or cells: NCI-1373

KRas G12D [2] = target: T1, KRas G12D; experiment: Cellular Phospho-ERK AlphaLISA, HPAC cells (KRAS G12D); assay type: cell-based; details: 2 h, read-out: relative IC50, reduction of phosphorylated ERK-1/2 in cells expressing KRAS G12D
HRAS = HRAS (Homo sapiens, UniProt P01112); experiment: Cellular Phospho-ERK AlphaLISA, MEF-HRAS cells (RAS-less MEFs expressing HRAS only); assay type: cell-based, mouse; details: 2 h, read-out: relative IC50, phospho-ERK, MEF-HRAS
KRAS WT = target: T3, KRAS WT (Homo sapiens, UniProt P01116); experiment: Cellular Phospho-ERK AlphaLISA, MKN45 cells (WT KRAS amplification); assay type: cell-based; details: cells expressing KRAS WT, 2 h; read-out: relative IC50, reduction of phosphorylated ERK-1/2 in cells expressing KRAS WT
T3 construct: or amplification of the KRAS gene; endogenous in cells; host or cells: MKN45

KRAS G12V = target: T4, KRAS G12V (Homo sapiens, UniProt P01116, G12V); experiment: Cellular Phospho-ERK AlphaLISA, SW620 cells (KRAS G12V); assay type: cell-based; details: 2 h, read-out: relative IC50, reduction of phosphorylated ERK-1/2 in cells expressing KRAS G12V
T4 construct: endogenous in cells; host or cells: SW620

KRas wild-type = target: T5, KRas wild-type (Homo sapiens, UniProt P01116); experiment: MKN-45 Cellular Active RAS GTPase ELISA (KRas Wild-type); assay type: cell-based; details: PANC-1 versus MKN-45 Cellular Active RAS GTPase ELISA
T5 construct: host or cells: MKN-45

| Compound | selective inhibition preference for KRas G12D mutant over KRas wild-type (KRas wild-type) | other results |
| --- | --- | --- |
| CC(O)CN1CC2CCC(C1)C2c1nc(OCC23CCCN2CC(F)C3)nc2c(F)c(-c3ncc(F)c4sc(N)c(C#N)c34)c3c(c12)COC3 [Example 370, 2-Amino-7-fluoro-4-[5-fluoro-3-[[(2R,8S)-2-fluoro-1,2,3,5,6,7-hexahydropyrrolizin-8-yl]methoxy]-1-[3-[(2R)-2-hydroxypropyl]-3-azabicyclo[3.2.1]octan-8-yl]-7,9-dihydrofuro[3,4-f]quinazolin-6-yl]thieno[3,2-c]pyridine-3-carbonitrile] | – | IC50 (NRAS): > 2 µM; IC50 (KRas G12D [1]): < 0.1 µM; IC50 (KRAS G12C): < 0.5 µM; IC50 (KRas G12D [2]): < 0.5 µM; IC50 (HRAS): > 2 µM; IC50 (KRAS WT): < 0.5 µM; IC50 (KRAS G12V): < 0.5 µM |
| COCCN1CC2CCC(C1)N2c1nc(OC[C@@H]2CCCN2C)nc2c(F)c(-c3c(F)ccc4sc(N)c(C#N)c34)c3c(c12)COC3 (single isomer, unassigned) [Example 150] | greater than 10 fold | – |
| COCCN1CC2CCC(C1)N2c1nc(OC[C@@]23CCCN2C[C@@H](F)C3)nc2c(F)c(-c3ncc(F)c4sc(N)c(C#N)c34)c3c(c12)COC3 (racemic) [Example 242, 2-Amino-7-fluoro-4-[5-fluoro-3-[[(2SR,8SR)-2-fluoro-1,2,3,5,6,7-hexahydropyrrolizin-8-yl]methoxy]-1-[3-(2-methoxyethyl)-3,8-diazabicyclo[3.2.1]octan-8-yl]-7,9-dihydrofuro[3,4-f]quinazolin-6-yl]thieno[3,2-c]pyridine-3-carbonitrile] | greater than 10 fold | – |
| COCCCN1CC2CCC(C1)N2c1nc(OC[C@@H]2C[C@@H](F)CN2C)nc2c(F)c(-c3ncc(F)c4sc(N)c(C#N)c34)c3c(c12)COC3 [Example 237, 2-Amino-7-fluoro-4-[5-fluoro-3-[[(2S,4R)-4-fluoro-1-methyl-pyrrolidin-2-yl]methoxy]-1-[3-(3-methoxypropyl)-3,8-diazabicyclo[3.2.1]octan-8-yl]-7,9-dihydrofuro[3,4-f]quinazolin-6-yl]thieno[3,2-c]pyridine-3-carbonitrile] | greater than 10 fold | – |
| CN(C)CCOc1nc(N2C3CCC2CN(CCCO)C3)c2c3c(c(-c4c(F)ccc5sc(N)c(C#N)c45)c(F)c2n1)COC3 (single isomer, unassigned) [Example 144, 2-Amino-4-[3-[2-(dimethylamino)ethoxy]-5-fluoro-1-[3-(3-hydroxypropyl)-3,8-diazabicyclo[3.2.1]octan-8-yl]-7,9-dihydrofuro[3,4-f]quinazolin-6-yl]-5-fluoro-benzothiophene-3-carbonitrile] | greater than 10 fold | – |
| C[C@@H](O)CN1CC2CCC(C1)N2c1nc(OC[C@H]2CN(C)CCO2)nc2c(F)c(-c3c(F)ccc4sc(N)c(C#N)c34)c3c(c12)COC3 (single isomer, unassigned) [Example 354] | greater than 10 fold | – |
| Cc1cnc(-c2c3c(c4c(N5C6CCC5CN(CC5COC5)C6)nc(OC[C@@]56CCCN5C[C@H](F)C6)nc4c2F)COC3)c2c(C#N)c(N)sc12 [Example 134, 2-Amino-4-[5-fluoro-3-[[(2R,8S)-2-fluoro-1,2,3,5,6,7-hexahydropyrrolizin-8-yl]methoxy]-1-[3-(oxetan-3-ylmethyl)-3,8-diazabicyclo[3.2.1]octan-8-yl]-7,9-dihydrofuro[3,4-f]quinazolin-6-yl]-7-methyl-thieno[3,2-c]pyridine-3-carbonitrile] | greater than 10 fold | – |
| N#Cc1c(N)sc2c(F)cnc(-c3c4c(c5c(N6C7CCC6CN(CCCO)C7)nc(OC[C@@]67CCCN6C[C@H](F)C7)nc5c3F)COC4)c12 [Example 218, 2-Amino-7-fluoro-4-[5-fluoro-3-[[(2R,8S)-2-fluoro-1,2,3,5,6,7-hexahydropyrrolizin-8-yl]methoxy]-1-[3-(3-hydroxypropyl)-3,8-diazabicyclo[3.2.1]octan-8-yl]-7,9-dihydrofuro[3,4-f]quinazolin-6-yl]thieno[3,2-c]pyridine-3-carbonitrile] | greater than 10 fold | – |
| N#Cc1c(N)sc2cccc(-c3cc4nc(OC[C@@]56CCCN5C[C@H](F)C6)nc(N5C6CCC5CNC6)c4c4c3COC4)c12 [Example 68, 2-Amino-4-[1-(3,8-diazabicyclo[3.2.1]octan-8-yl)-3-[[(2R,8S)-2-fluoro-1,2,3,5,6,7-hexahydropyrrolizin-8-yl]methoxy]-7,9-dihydrofuro[3,4-f]quinazolin-6-yl]benzothiophene-3-carbonitrile] | greater than 10 fold | – |
| COCCCN1CC2CCC(C1)N2c1nc(OC[C@@]23CCCN2C[C@H](F)C3)nc2c(F)c(-c3nccc4sc(N)c(C#N)c34)c3c(c12)COC3 [Example 118, 2-Amino-4-[5-fluoro-3-[[(2R,8S)-2-fluoro-1,2,3,5,6,7-hexahydropyrrolizin-8-yl]methoxy]-1-[3-(3-methoxypropyl)-3,8-diazabicyclo[3.2.1]octan-8-yl]-7,9-dihydrofuro[3,4-f]quinazolin-6-yl]thieno[3,2-c]pyridine-3-carbonitrile] | greater than 10 fold | – |
| CN1CCC(F)(F)C(COc2nc(N3C4CCC3CN(CCCO)C4)c3c4c(c(-c5ncc(F)c6sc(N)c(C#N)c56)c(F)c3n2)COC4)C1 (single isomer, unassigned) [Example 328, 2-Amino-4-[3-[(4,4-difluoro-1-methyl-3-piperidyl)methoxy]-5-fluoro-1-[3-(3-hydroxypropyl)-3,8-diazabicyclo[3.2.1]octan-8-yl]-7,9-dihydrofuro[3,4-f]quinazolin-6-yl]-7-fluoro-thieno[3,2-c]pyridine-3-carbonitrile] | greater than 10 fold | – |
| C[C@H](O)CN1CC2CCC(C1)N2c1nc(OC[C@@]23CCCN2C[C@H](F)C3)nc2c(F)c(-c3cccc4sc(N)c(C#N)c34)c3c(c12)COC3 [Example 56, 2-Amino-4-[5-fluoro-3-[[(2R,8S)-2-fluoro-1,2,3,5,6,7-hexahydropyrrolizin-8-yl]methoxy]-1-[3-[(2S)-2-hydroxypropyl]-3,8-diazabicyclo[3.2.1]octan-8-yl]-7,9-dihydrofuro[3,4-f]quinazolin-6-yl]benzothiophene-3-carbonitrile] | greater than 10 fold | – |
| CN1CC2CCC(C1)N2c1nc(OC[C@@H]2CCCN2C)nc2c(F)c(-c3ncc(F)c4sc(N)c(C#N)c34)c3c(c12)COC3 [Example 235, 2-Amino-7-fluoro-4-[5-fluoro-1-(3-methyl-3,8-diazabicyclo[3.2.1]octan-8-yl)-3-[[(2S)-1-methylpyrrolidin-2-yl]methoxy]-7,9-dihydrofuro[3,4-f]quinazolin-6-yl]thieno[3,2-c]pyridine-3-carbonitrile] | greater than 10 fold | – |
| N#Cc1c(N)sc2ccc(F)c(-c3c4c(c5c(N6C7CCC6CN(CC6CC6CO)C7)ncnc5c3F)COC4)c12 (single isomer, unassigned) [Example 157, 2-Amino-5-fluoro-4-[5-fluoro-1-[3-[[2-(hydroxymethyl)cyclopropyl]methyl]-3,8-diazabicyclo[3.2.1]octan-8-yl]-7,9-dihydrofuro[3,4-f]quinazolin-6-yl]benzothiophene-3-carbonitrile] | greater than 10 fold | – |
| N#Cc1c(N)oc2cccc(-c3c4c(c5c(N6C7CCC6CNC7)nc(OC[C@@]67CCCN6C[C@H](F)C7)nc5c3F)COC4)c12 [Example 14, 2-Amino-4-[1-(3,8-diazabicyclo[3.2.1]octan-8-yl)-5-fluoro-3-[[(2R,8S)-2-fluoro-1,2,3,5,6,7-hexahydropyrrolizin-8-yl]methoxy]-7,9-dihydrofuro[3,4-f]quinazolin-6-yl]benzofuran-3-carbonitrile] | greater than 10 fold | – |

From US12351591B2, “KRas inhibitors” (ELI LILLY AND COMPANY, priority 2022, dated 2025)
